Experimental data: US20250369124A1, “IMIDAZOLINE-SUGAR CONJUGATE COMPOSITIONS AND METHODS FOR INHIBITING CORROSION” (Ecolab USA Inc., priority 2024, published 2025)

Assay: Wheel box test (NACE publication ID182), corrosion of carbon steel coupons in CO2-saturated brine/oil
Settings: for MPY / Weight Loss Mg.: 80° C., 24 hours, CO2 saturated, 80% ASTM Seawater brine / 20% LVT-200
From the text: To determine the efficacy of the compositions as corrosion inhibitors, a wheel box test was used. It is a testing methodology from NACE publication ID182. The method is used to assess the degree of protection afforded to a metal surface that is in contact with water laden with carbon dioxide (C02). The wheel box test is a test that is often used in the field for comparative corrosion inhibitor performance tests. The standard test conditions used in the performance test are in Table 1.
A continuous wheel box test procedure was used to compare the performance of the corrosion inhibitor formulations of the invention in mitigating the corrosion of carbon steel in solutions saturated with carbon dioxide. Into a set of bottles containing the desired brine and oil mixtures, Table 1, clean and pre-weighed coupons were immersed. The solution was purged with carbon dioxide, after which the solutions were dosed with the various concentrations of the formulations. After purging the headspace with carbon dioxide, the bottles were immediately capped to prevent aerial exposure.
Blanks, comprising bottles of untreated mixtures, were used to determine the baseline corrosion rate under the test conditions. The bottles were placed on a rotating wheel under incubation at 80° C. for a period of 24 hours. Following the completion of the incubation, the bottles were retrieved and left to cooled to room temperature. The coupons were removed from the test solutions, cleaned, dried, sandblasted and re-weighed. By comparing the mass loss of the coupons immersed in treated solutions versus the mass loss for coupons placed in untreated solutions, the corrosion rate and protection efficiency were calculated.

[1] = 500 ppm inhibitor, listed as Formulation 2, acetate salt
[2] = 1000 ppm inhibitor, listed as Formulation 2, acetate salt
[3] = 2000 ppm inhibitor, listed as Formulation 2, acetate salt
[4] = 5000 ppm inhibitor, listed as Formulation 2, acetate salt
[5] = 10000 ppm inhibitor, listed as Formulation 2, acetate salt
[6] = 20000 ppm inhibitor, listed as Formulation 2, acetate salt
[7] = 50000 ppm inhibitor, listed as Formulation 2, acetate salt
[8] = 500 ppm inhibitor, listed as Formulation 1, acetate salt
[9] = 1000 ppm inhibitor, listed as Formulation 1, acetate salt
[10] = 2000 ppm inhibitor, listed as Formulation 1, acetate salt
[11] = 5000 ppm inhibitor, listed as Formulation 1, acetate salt
[12] = 10000 ppm inhibitor, listed as Formulation 1, acetate salt
[13] = 20000 ppm inhibitor, listed as Formulation 1, acetate salt
[14] = 50000 ppm inhibitor, listed as Formulation 1, acetate salt

CC(=O)[O-].CCCCCCCC/C=C\CCCCCCCC1=[N+](CC(O)c2ccccc2)CCN1CCNC1OC(CO)C(O)C(O)C1O (centres unmarked) [Formula 2, (Z)-2-(heptadec-8-en-1-yl)-3-(2-hydroxy-2-phenylethyl)-1-(2-((3,4,5-trihydroxy-6-(hydroxymethyl)tetrahydro-2H-pyran-2-yl)amino)ethyl)-4,5-dihydro-1H-imidazol-3-ium acetate salt]
improvement of % Protection over Comparative Formulation (5 ppm of Corrosion Inhibitor): (100% improvement) | improvement of % Protection over Comparative Formulation (10 ppm of Corrosion Inhibitor): (50% improvement) | improvement of % Protection over Comparative Formulation (25 ppm of Corrosion Inhibitor): (36% improvement) | improvement of % Protection over Comparative Formulation (50 ppm of Corrosion Inhibitor): (33 improvement) % | MPY [1]: 3.48 MPY and 3.17 MPY | Weight Loss Mg. [1]: 5.7 Mg. and 5.2 Mg. | MPY [2]: 3.23 MPY and 3.36 MPY | Weight Loss Mg. [2]: 5.3 Mg. and 5.5 Mg. | MPY [3]: 3.54 MPY and 3.11 MPY | Weight Loss Mg. [3]: 5.8 Mg. and 5.1 Mg. | MPY [4]: 3.23 MPY and 2.99 MPY | Weight Loss Mg. [4]: 5.3 Mg. and 4.9 Mg. | MPY [5]: 2.68 MPY and 2.32 MPY | Weight Loss Mg. [5]: 4.4 Mg. and 3.8 Mg. | MPY [6]: 2.32 MPY and 2.44 MPY | Weight Loss Mg. [6]: 3.8 Mg. and 4.0 Mg. | MPY [7]: 2.50 MPY and 2.44 MPY | Weight Loss Mg. [7]: 4.1 Mg. and 4.0 Mg.

CCCCCCCC/C=C\CCCCCCCC1=NCCN1CCN [Comparative Formulation, Acetate, reference compound]
MPY (500 ppm inhibitor, Acetate): 4.7 MPY and 4.27 MPY | Weight Loss Mg. (500 ppm inhibitor, Acetate): 7.7 Mg. and 7 Mg. | MPY (1000 ppm inhibitor, Acetate): 4.39 MPY and 4.03 MPY | Weight Loss Mg. (1000 ppm inhibitor, Acetate): 7.2 Mg. and 6.6 Mg. | MPY (2000 ppm inhibitor, Acetate): 4.21 MPY and 4.33 MPY | Weight Loss Mg. (2000 ppm inhibitor, Acetate): 6.9 Mg. and 7.1 Mg. | MPY (5000 ppm inhibitor, Acetate): 4.64 MPY and 4.27 MPY | Weight Loss Mg. (5000 ppm inhibitor, Acetate): 7.6 Mg. and 7 Mg. | MPY (10000 ppm inhibitor, Acetate): 4.45 MPY and 4.21 MPY | Weight Loss Mg. (10000 ppm inhibitor, Acetate): 7.3 Mg. and 6.9 Mg. | MPY (20000 ppm inhibitor, Acetate): 4.51 MPY and 4.39 MPY | Weight Loss Mg. (20000 ppm inhibitor, Acetate): 7.4 Mg. and 7.2 Mg. | MPY (50000 ppm inhibitor, Acetate): 4.21 MPY and 4.09 MPY | Weight Loss Mg. (50000 ppm inhibitor, Acetate): 6.9 Mg. and 6.7 Mg.

CC(=O)O.CCCCCCCC/C=C\CCCCCCCC1=NCCN1CCNC1OC(CO)C(O)C(O)C1O (centres unmarked) [Formula 1, (Z)-2-((2-(2-(heptadec-8-en-1-yl)-4,5-dihydro-1H-imidazol-1-yl)ethyl)amino)-6-(hydroxymethyl)tetrahydro-2H-pyran-3,4,5-triol acetate salt]
improvement of % Protection over Comparative Formulation (5 ppm of Corrosion Inhibitor): (54% improvement) | improvement of % Protection over Comparative Formulation (10 ppm of Corrosion Inhibitor): (33% improvement) | improvement of % Protection over Comparative Formulation (25 ppm of Corrosion Inhibitor): (29% improvement) | improvement of % Protection over Comparative Formulation (50 ppm of Corrosion Inhibitor): (15% improvement) | MPY [8]: 2.07 MPY and 2.01 MPY | Weight Loss Mg. [8]: 3.4 Mg. and 3.3 Mg. | MPY [9]: 2.68 MPY and 2.56 MPY | Weight Loss Mg. [9]: 4.4 Mg. and 4.2 Mg. | MPY [10]: 2.81 MPY and 2.26 MPY | Weight Loss Mg. [10]: 4.6 Mg. and 3.7 Mg. | MPY [11]: 2.44 MPY and 2.38 MPY | Weight Loss Mg. [11]: 4 Mg. and 3.9 Mg. | MPY [12]: 2.2 MPY and 2.26 MPY | Weight Loss Mg. [12]: 3.6 Mg. and 3.7 Mg. | MPY [13]: 1.77 MPY and 1.83 MPY | Weight Loss Mg. [13]: 2.9 Mg. and 3 Mg. | MPY [14]: 1.89 MPY and 2.44 MPY | Weight Loss Mg. [14]: 3.1 Mg. and 4 Mg.

“And” between values parts separate entries of the source, which are not always exact repeats. Equal entries are not always repeated.
